From paper PMC4917237 come the findings set out here.

Assay [1] addresses OsOFP8-YFP (rice (Oryza sativa)). Briefly: co-IP; Arabidopsis protoplasts co-transfected, 8 h; lysate in IP buffer (10 mM Tris-HCl pH 7.4, 150 mM NaCl, 0.5 mM EDTA, 0.2% Nonidet P-40, 5% glycerol); GFP-Trap agarose beads 4 h at 4°C; immunoblot with GFP and HA antibodies. On the technique in general: A western blot detects proteins with antibodies after separation by electrophoresis.

Assay [2] concerns the target OVATE domain-containing C-terminal region of OsOFP8, yeast two-hybrid fusion (rice (Oryza sativa)). Description: two-hybrid; yeast two-hybrid (Clontech), pGBKT7 and pGADT7 fusions; interaction read on SD-Leu-Trp-His-Ade plates.
In assay [3] the target is N-terminal region of OsOFP8, yeast two-hybrid fusion (rice (Oryza sativa)). Described as above.
Assay [4] deals with OsOFP8 in pSPYCE-35S (BiFC fusion) (rice (Oryza sativa)). Description: split reporter; BiFC: pSPYNE-35S-OsGSK2 and pSPYCE-35S-OsOFP8 co-transfected into protoplast cells, 12 h in the dark, YFP fluorescence observed.

No constants are given. Whether binding was seen depends on the method and setting. For some of these results: In cells and extracts the contact can be indirect. For some of these results: Binding can be weak; no strength is given. For some of these results: Sequences can lack the tags named with a protein.

B1: 3HA-OsGSK2 (enzyme, UniProt Q60EZ2 1-402)
chain: MDQPAPAPEPMLLDAQPPAAVACDKKQQEGEAPYAEGNDAVTGHIISTTIGGKNGEPKRTISYMAERVVGTGSFGIVFQAKCLETGETVAIKKVLQDRRYKNRELQLMRAMDHPNVISLKHCFFSTTSRDELFLNLVMEYVPETLYRVLKHYSNANHRMPLIYVKLYMYQLFRGLAYIHTVPGVCHRDVKPQNVLVDPLTHQVKLCDFGSAKTLVPGEPNISYICSRYYRAPELIFGATEYTTSIDIWSAGCVLAELLLGQPLFPGESAVDQLVEIIKVLGTPTREEIRCMNPNYTEFRFPQIKAHPWHKVFHKRMPPEAIDLASRLLQYSPSLRCTALDACAHPFFDELREPNARLPNGRPFPPLFNFKHELANSSQELISRLIPEHVRRQATHNFFNTGS
On to B1, for which, in assay [1], the binding entry is given as “binds”.

B2: OsGSK2, yeast two-hybrid fusion (enzyme, UniProt Q60EZ2 1-402)
chain: MDQPAPAPEPMLLDAQPPAAVACDKKQQEGEAPYAEGNDAVTGHIISTTIGGKNGEPKRTISYMAERVVGTGSFGIVFQAKCLETGETVAIKKVLQDRRYKNRELQLMRAMDHPNVISLKHCFFSTTSRDELFLNLVMEYVPETLYRVLKHYSNANHRMPLIYVKLYMYQLFRGLAYIHTVPGVCHRDVKPQNVLVDPLTHQVKLCDFGSAKTLVPGEPNISYICSRYYRAPELIFGATEYTTSIDIWSAGCVLAELLLGQPLFPGESAVDQLVEIIKVLGTPTREEIRCMNPNYTEFRFPQIKAHPWHKVFHKRMPPEAIDLASRLLQYSPSLRCTALDACAHPFFDELREPNARLPNGRPFPPLFNFKHELANSSQELISRLIPEHVRRQATHNFFNTGS
B2: the binding result in assay [2] and in assay [3] was “no binding” each time.

B3: OsGSK2 in pSPYNE-35S (BiFC fusion) (enzyme, UniProt Q60EZ2 1-402)
chain: MDQPAPAPEPMLLDAQPPAAVACDKKQQEGEAPYAEGNDAVTGHIISTTIGGKNGEPKRTISYMAERVVGTGSFGIVFQAKCLETGETVAIKKVLQDRRYKNRELQLMRAMDHPNVISLKHCFFSTTSRDELFLNLVMEYVPETLYRVLKHYSNANHRMPLIYVKLYMYQLFRGLAYIHTVPGVCHRDVKPQNVLVDPLTHQVKLCDFGSAKTLVPGEPNISYICSRYYRAPELIFGATEYTTSIDIWSAGCVLAELLLGQPLFPGESAVDQLVEIIKVLGTPTREEIRCMNPNYTEFRFPQIKAHPWHKVFHKRMPPEAIDLASRLLQYSPSLRCTALDACAHPFFDELREPNARLPNGRPFPPLFNFKHELANSSQELISRLIPEHVRRQATHNFFNTGS
Turning to B3, the binding entry in assay [4] is “binds”.
